Reference: the supplement of paper PMC10849652
The other results are listed elsewhere or left out.

The chains behind the UniProt entries cited, without tags or fusion partners. Where a name states a change or a piece, a line headed by the entry shows the natural chain unless it says otherwise.
UniProt P10620: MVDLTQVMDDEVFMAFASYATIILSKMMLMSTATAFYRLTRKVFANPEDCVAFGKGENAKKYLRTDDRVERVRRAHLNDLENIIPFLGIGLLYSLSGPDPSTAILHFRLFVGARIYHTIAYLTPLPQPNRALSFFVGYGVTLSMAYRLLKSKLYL
UniProt Q5TF39: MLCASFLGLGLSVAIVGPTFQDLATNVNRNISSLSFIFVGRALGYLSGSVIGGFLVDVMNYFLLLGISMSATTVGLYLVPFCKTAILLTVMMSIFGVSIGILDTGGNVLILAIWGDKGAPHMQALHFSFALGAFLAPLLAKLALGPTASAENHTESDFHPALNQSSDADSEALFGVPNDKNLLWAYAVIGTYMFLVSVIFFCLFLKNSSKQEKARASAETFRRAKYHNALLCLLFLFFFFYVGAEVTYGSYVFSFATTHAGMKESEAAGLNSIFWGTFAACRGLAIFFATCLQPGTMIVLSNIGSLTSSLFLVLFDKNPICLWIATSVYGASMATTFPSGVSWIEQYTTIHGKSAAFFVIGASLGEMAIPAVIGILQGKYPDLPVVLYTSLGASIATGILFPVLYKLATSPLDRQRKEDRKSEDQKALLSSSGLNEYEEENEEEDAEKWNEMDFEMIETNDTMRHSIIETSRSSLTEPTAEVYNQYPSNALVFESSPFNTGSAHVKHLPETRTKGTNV
UniProt Q16626: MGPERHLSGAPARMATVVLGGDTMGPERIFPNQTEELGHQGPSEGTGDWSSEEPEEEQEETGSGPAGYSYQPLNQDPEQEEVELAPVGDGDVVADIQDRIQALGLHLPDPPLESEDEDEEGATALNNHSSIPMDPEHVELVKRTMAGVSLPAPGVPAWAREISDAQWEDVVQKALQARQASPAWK
UniProt Q8WXB1: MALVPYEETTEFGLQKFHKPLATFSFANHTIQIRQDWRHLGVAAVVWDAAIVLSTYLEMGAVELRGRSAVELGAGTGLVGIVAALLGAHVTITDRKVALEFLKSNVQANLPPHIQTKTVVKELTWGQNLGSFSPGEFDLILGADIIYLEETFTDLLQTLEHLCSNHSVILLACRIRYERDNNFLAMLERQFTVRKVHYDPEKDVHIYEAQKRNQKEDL
UniProt Q9H8H3: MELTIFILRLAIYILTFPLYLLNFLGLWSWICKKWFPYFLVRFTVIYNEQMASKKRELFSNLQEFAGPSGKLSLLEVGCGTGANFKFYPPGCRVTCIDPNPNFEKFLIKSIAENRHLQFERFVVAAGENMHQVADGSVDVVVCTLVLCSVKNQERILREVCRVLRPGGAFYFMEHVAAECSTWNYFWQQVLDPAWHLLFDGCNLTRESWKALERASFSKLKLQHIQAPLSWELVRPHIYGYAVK
UniProt Q9BTE3: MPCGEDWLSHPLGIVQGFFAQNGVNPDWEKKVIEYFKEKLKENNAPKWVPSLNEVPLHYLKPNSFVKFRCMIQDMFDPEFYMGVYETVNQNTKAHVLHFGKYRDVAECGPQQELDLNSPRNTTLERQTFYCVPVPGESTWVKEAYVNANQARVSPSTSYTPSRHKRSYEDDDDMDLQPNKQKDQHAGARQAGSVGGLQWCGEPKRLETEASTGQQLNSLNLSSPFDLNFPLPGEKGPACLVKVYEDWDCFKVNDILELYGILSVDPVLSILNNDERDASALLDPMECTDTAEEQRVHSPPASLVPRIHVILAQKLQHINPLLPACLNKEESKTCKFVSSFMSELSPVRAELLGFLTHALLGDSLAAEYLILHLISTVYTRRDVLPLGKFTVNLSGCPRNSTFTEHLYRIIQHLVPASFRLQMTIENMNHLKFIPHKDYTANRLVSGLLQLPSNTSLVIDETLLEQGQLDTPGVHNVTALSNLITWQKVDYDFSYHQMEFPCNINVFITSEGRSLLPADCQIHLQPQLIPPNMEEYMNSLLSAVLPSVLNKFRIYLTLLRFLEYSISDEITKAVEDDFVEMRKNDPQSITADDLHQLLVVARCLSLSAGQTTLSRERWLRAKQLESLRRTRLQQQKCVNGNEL
UniProt P33992: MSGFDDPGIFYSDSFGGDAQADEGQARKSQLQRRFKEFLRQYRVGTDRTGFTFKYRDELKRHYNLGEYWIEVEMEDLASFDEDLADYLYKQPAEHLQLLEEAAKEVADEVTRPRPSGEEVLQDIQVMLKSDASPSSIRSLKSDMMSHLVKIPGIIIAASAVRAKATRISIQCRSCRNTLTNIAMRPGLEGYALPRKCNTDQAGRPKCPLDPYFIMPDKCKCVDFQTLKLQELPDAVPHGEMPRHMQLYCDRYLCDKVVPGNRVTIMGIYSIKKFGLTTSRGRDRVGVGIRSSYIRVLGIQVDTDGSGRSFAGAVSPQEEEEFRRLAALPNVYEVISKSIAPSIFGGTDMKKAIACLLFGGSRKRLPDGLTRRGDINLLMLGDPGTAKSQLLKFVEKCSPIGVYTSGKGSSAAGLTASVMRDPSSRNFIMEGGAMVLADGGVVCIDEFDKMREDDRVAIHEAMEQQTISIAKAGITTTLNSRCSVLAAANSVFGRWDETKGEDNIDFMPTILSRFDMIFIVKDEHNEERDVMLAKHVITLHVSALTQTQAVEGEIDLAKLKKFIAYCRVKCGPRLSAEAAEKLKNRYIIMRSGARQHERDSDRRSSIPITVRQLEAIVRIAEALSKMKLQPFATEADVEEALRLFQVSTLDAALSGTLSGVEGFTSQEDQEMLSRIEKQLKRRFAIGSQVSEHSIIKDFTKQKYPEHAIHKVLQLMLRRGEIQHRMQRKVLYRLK
UniProt Q7L2J0: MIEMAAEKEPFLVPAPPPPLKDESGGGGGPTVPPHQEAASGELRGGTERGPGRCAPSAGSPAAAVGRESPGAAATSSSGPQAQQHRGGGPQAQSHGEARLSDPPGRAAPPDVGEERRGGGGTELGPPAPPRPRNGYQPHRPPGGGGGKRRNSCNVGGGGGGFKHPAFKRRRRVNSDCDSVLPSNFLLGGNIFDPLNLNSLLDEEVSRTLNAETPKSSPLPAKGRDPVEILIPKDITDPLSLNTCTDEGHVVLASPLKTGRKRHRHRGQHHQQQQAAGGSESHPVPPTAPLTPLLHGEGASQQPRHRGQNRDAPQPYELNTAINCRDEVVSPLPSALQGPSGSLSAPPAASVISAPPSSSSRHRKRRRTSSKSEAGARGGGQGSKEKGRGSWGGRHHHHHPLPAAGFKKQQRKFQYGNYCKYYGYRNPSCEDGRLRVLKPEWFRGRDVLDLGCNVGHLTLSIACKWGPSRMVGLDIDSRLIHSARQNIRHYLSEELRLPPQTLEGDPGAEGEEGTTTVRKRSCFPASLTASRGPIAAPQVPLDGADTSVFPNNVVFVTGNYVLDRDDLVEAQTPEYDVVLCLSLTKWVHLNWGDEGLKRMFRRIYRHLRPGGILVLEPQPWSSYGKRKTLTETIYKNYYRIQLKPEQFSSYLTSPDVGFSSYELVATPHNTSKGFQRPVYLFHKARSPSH
UniProt P40925: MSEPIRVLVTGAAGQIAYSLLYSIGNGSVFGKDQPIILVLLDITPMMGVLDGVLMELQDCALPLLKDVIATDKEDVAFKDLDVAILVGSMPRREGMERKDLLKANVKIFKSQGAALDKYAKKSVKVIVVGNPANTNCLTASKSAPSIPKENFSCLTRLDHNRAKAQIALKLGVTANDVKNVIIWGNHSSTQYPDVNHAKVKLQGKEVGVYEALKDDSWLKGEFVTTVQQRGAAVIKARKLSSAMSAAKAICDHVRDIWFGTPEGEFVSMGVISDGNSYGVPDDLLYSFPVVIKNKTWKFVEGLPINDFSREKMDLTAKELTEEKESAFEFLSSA
UniProt Q15648, whole entry, looked up: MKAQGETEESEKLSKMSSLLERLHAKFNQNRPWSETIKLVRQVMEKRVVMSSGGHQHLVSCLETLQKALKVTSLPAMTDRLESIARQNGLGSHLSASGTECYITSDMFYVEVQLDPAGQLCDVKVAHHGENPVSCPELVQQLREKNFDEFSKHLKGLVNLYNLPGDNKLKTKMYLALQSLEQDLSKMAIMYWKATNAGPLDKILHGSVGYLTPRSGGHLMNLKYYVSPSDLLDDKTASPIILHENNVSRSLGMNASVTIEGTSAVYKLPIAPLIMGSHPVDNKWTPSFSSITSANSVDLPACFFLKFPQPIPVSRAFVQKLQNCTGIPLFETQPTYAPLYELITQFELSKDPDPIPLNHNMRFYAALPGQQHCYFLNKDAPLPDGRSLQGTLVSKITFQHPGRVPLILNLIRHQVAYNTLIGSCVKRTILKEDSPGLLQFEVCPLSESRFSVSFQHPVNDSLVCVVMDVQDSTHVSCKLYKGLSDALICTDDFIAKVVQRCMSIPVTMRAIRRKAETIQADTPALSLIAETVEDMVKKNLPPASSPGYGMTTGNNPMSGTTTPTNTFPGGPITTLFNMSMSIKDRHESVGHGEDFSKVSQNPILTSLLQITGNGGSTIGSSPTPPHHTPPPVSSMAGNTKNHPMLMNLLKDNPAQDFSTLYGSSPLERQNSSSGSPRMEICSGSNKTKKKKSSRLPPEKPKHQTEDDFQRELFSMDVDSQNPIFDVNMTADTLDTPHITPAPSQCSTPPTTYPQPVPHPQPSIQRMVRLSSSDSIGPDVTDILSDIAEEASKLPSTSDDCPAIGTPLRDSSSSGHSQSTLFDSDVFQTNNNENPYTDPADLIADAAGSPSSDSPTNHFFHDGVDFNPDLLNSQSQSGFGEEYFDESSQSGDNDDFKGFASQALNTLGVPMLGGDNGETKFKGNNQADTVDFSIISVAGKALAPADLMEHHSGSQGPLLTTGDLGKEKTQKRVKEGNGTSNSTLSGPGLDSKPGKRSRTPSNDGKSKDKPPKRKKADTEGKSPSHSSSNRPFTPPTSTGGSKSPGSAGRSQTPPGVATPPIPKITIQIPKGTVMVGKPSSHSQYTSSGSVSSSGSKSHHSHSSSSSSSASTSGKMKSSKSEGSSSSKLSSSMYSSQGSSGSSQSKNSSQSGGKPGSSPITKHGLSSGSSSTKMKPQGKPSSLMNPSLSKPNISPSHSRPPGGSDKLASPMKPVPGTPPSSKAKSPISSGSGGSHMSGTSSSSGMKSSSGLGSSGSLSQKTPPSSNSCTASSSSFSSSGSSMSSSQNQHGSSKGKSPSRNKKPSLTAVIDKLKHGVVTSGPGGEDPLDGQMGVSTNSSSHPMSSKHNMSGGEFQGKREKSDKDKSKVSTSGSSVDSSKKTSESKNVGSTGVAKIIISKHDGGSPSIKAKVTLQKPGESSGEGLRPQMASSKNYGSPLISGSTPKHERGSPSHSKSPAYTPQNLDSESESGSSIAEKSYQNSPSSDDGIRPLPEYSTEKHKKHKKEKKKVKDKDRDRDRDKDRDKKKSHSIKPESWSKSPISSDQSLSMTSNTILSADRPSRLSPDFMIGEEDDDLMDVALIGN
UniProt Q7Z434: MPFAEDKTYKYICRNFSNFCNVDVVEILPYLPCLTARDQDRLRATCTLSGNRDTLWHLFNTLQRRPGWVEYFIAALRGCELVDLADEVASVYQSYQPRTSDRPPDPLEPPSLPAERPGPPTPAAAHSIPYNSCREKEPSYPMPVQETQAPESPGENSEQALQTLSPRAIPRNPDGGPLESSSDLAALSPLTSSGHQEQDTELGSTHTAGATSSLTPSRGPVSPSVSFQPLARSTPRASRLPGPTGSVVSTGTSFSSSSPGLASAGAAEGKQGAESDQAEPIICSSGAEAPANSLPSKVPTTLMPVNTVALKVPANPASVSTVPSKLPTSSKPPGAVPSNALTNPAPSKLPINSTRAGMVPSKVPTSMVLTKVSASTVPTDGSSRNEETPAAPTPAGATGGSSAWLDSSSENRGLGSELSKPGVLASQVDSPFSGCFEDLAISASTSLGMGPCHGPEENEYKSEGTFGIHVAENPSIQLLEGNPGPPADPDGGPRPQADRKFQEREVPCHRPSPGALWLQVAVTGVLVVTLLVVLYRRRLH
UniProt P48163: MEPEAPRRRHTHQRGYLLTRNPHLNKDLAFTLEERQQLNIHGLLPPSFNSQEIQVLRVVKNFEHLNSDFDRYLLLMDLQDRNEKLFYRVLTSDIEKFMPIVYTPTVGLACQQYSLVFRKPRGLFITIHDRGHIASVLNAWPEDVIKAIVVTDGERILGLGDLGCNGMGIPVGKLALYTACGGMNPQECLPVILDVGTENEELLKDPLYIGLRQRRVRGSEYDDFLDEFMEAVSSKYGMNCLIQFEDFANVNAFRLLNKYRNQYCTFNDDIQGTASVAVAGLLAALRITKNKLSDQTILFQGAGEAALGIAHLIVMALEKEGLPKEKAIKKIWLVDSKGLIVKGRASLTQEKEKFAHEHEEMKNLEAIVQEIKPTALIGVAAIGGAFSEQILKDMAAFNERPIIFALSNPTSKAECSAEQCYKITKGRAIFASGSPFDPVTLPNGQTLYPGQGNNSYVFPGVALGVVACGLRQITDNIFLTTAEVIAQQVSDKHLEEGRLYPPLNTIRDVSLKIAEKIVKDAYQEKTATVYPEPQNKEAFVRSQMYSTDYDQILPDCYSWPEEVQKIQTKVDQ

Columns and labels:
Assay in all cases: log2 fold change, soluble protein after heating vs DMSO (PISA); higher = thermal stabilisation; K562 cells, 10 uM, 30 min; active = over 0.2 and 3.5 SD of the protein, either way, in both replicates (recomputed)
bafetinib = compound: Cc1ccc(NC(=O)c2ccc(CN3CC[C@H](N(C)C)C3)c(C(F)(F)F)c2)cc1Nc1nccc(-c2cncnc2)n1 [bafetinib]
How it was run: (§1)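 K562 cells at 2×10^6 cells/mL were given 10 μM compound for 30 min. Aliquots then went through 3 min of heating across 48°C-58°C, were pooled, and were extracted in PBS with 0.5% NP-40 at 4°C, and the supernatant after 21,000xg for 90 min was quantified by TMTpro 16plex LC-MS/MS with channel sums equalised. Thermal stability relative to control samples, from duplicates, is given as log2 fold change.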

[1] = compound: Cc1cccc(CC(=O)N2CCc3c2ccc(-c2cn(C)c4ncnc(N)c24)c3F)n1
How it was run: as §1

nilotinib = compound: Cc1cn(-c2cc(NC(=O)c3ccc(C)c(Nc4nccc(-c5cccnc5)n4)c3)cc(C(F)(F)F)c2)cn1 [nilotinib]
How it was run: as §1

[2] = compound: Cc1nc(Nc2n[nH]c3c2CN(C(=O)N[C@H](CN(C)C)c2ccccc2)C3(C)C)c2sccc2n1
How it was run: as §1

dasatinib = compound: Cc1nc(Nc2ncc(C(=O)Nc3c(C)cccc3Cl)s2)cc(N2CCN(CCO)CC2)n1 [dasatinib]
How it was run: as §1

[3] = compound: Cc1ncc(-c2ccnc(Nc3ccc(S(C)(=O)=O)cc3)n2)n1C(C)C
How it was run: as §1

[4] = compound: Cn1cc(-c2ccc3c(c2)CCN3C(=O)Cc2cccc(C(F)(F)F)c2)c2c(N)ncnc21
How it was run: as §1

[5] = compound: Cn1cc(-c2ccc3nnc(C(F)(F)c4ccc5ncccc5c4)n3n2)cn1
How it was run: as §1

tipifarnib = compound: Cn1cncc1[C@@](N)(c1ccc(Cl)cc1)c1ccc2c(c1)c(-c1cccc(Cl)c1)cc(=O)n2C [tipifarnib]
How it was run: as §1

mubritinib = compound: FC(F)(F)c1ccc(/C=C/c2nc(COc3ccc(CCCCn4ccnn4)cc3)co2)cc1 [mubritinib]
How it was run: as §1

[6] = compound: NC(=O)Nc1cc(-c2cccc(F)c2)sc1C(=O)N[C@H]1CCCNC1
How it was run: as §1

[7] = compound: NC(=O)c1cnc(N[C@@H]2CCCC[C@@H]2N)nc1Nc1cccc(-n2nccn2)c1
How it was run: as §1

[8] = compound: NC1(c2ccc(-c3nc4ccn5c(=O)[nH]nc5c4cc3-c3ccccc3)cc2)CCC1
How it was run: as §1

[9] = compound: NCC(=O)Nc1ccc(-n2nc(C(F)(F)F)cc2-c2ccc3c(ccc4ccccc43)c2)cc1
How it was run: as §1

entinostat = compound: Nc1ccccc1NC(=O)c1ccc(CNC(=O)OCc2cccnc2)cc1 [entinostat]
How it was run: as §1

vorinostat = compound: O=C(CCCCCCC(=O)Nc1ccccc1)NO [vorinostat]
How it was run: as §1

citarinostat = compound: O=C(CCCCCCNC(=O)c1cnc(N(c2ccccc2)c2ccccc2Cl)nc1)NO [citarinostat]
How it was run: as §1

silmitasertib = compound: O=C(O)c1ccc2c(c1)nc(Nc1cccc(Cl)c1)c1ccncc12 [silmitasertib]
How it was run: as §1

[10] = compound: O=C1NC(=O)C(c2cnc3ccccn23)=C1c1cn2c3c(cc(F)cc13)CN(C(=O)N1CCCCC1)CC2
How it was run: as §1

[11] = compound: c1cc(OCCN2CCCCC2)cc(-c2n[nH]c3ccc(-c4nnc[nH]4)cc23)c1
How it was run: as §1

| Target | log2 fold change (bafetinib) | log2 fold change [1] | log2 fold change (nilotinib) | log2 fold change [2] | log2 fold change (dasatinib) | log2 fold change [3] | log2 fold change [4] | log2 fold change [5] | log2 fold change (tipifarnib) | log2 fold change (mubritinib) | log2 fold change [6] | log2 fold change [7] | log2 fold change [8] | log2 fold change [9] | log2 fold change (entinostat) | log2 fold change (vorinostat) | log2 fold change (citarinostat) | log2 fold change (silmitasertib) | log2 fold change [10] | log2 fold change [11] |
| --- | --- | --- | --- | --- | --- | --- | --- | --- | --- | --- | --- | --- | --- | --- | --- | --- | --- | --- | --- | --- |
| MEAF6 isoform 3 (UniProt Q9HAF1) | inactive: 0.009 | inactive: -0.035 | inactive: 0.077 | inactive: 0.064 | inactive: 0.06 | inactive: -0.025 | inactive: 0.009 | inactive: -0.013 | inactive: 0.054 | inactive: 0.032 | inactive: -0.035 | inactive: 0.049 | inactive: 0.125 | inactive: -0.099 | inactive: -0.035 | inactive: 0.082 | inactive: 0.04 | inactive: -0.006 | inactive: 0.105 | inactive: -0.155 |
| MCRIP1 (UniProt I3L4Q0) | inactive: -0.067 | inactive: -0.099 | inactive: -0.049 | inactive: 0.019 | inactive: 0 | inactive: -0.029 | inactive: 0.027 | inactive: -0.066 | inactive: 0.028 | inactive: 0.018 | inactive: -0.047 | inactive: -0.052 | inactive: 0.039 | inactive: -0.127 | inactive: 0.029 | inactive: 0.006 | inactive: 0.016 | inactive: 0.012 | inactive: -0.011 | inactive: -0.013 |
| MGST1 (UniProt P10620) | inactive: -0.001 | inactive: -0.053 | inactive: -0.006 | inactive: 0.078 | inactive: 0.084 | inactive: -0.039 | inactive: -0.013 | inactive: 0.014 | inactive: 0.131 | inactive: -0.005 | inactive: -0.025 | inactive: -0.024 | inactive: -0.035 | inactive: 0.163 | inactive: 0.031 | inactive: 0.027 | inactive: -0.065 | inactive: 0.036 | inactive: -0.086 | inactive: 0.122 |
| MFSD4B (UniProt Q5TF39) | inactive: -0.121 | inactive: 0.004 | inactive: 0.004 | inactive: -0.033 | inactive: 0.054 | inactive: 0.005 | inactive: 0.075 | inactive: 0.127 | inactive: 0.006 | inactive: -0.03 | inactive: 0.167 | inactive: 0.116 | inactive: 0.145 | inactive: 0.097 | inactive: -0.106 | inactive: 0.033 | inactive: 0.016 | inactive: -0.099 | inactive: -0.126 | inactive: -0.045 |
| MEA1 (UniProt Q16626) | inactive: -0.019 | inactive: -0.005 | inactive: 0.016 | inactive: -0.02 | inactive: 0.08 | inactive: -0.071 | inactive: 0.02 | inactive: 0.03 | inactive: 0.055 | inactive: 0.057 | inactive: -0.003 | inactive: 0.097 | inactive: -0.113 | inactive: 0.026 | inactive: 0.004 | inactive: -0.095 | inactive: 0.112 | inactive: 0.031 | inactive: -0.1 | inactive: 0.031 |
| METTL21A (UniProt Q8WXB1) | inactive: -0.049 | inactive: 0.022 | inactive: 0.002 | inactive: -0.026 | inactive: 0.005 | inactive: -0.032 | inactive: 0.099 | inactive: -0.013 | inactive: -0.131 | inactive: 0.051 | inactive: 0.1 | inactive: 0.023 | inactive: -0.045 | inactive: 0.056 | inactive: -0.021 | inactive: -0.021 | inactive: 0.074 | inactive: 0.031 | inactive: -0.024 | inactive: -0.149 |
| METTL7A (UniProt Q9H8H3) | inactive: -0.016 | inactive: -0.021 | inactive: 0.012 | inactive: -0.002 | inactive: 0.044 | inactive: 0.011 | inactive: 0.077 | inactive: 0.007 | inactive: 0.035 | inactive: 0.025 | inactive: -0.091 | inactive: 0.014 | inactive: 0.018 | inactive: -0.019 | inactive: 0 | inactive: -0.002 | inactive: 0.027 | inactive: -0.028 | inactive: 0.01 | inactive: 0.02 |
| MCMBP (UniProt Q9BTE3) | inactive: 0 | inactive: 0 | inactive: -0.016 | inactive: -0.07 | inactive: -0.092 | inactive: 0.005 | inactive: 0.04 | inactive: 0.029 | inactive: -0.112 | inactive: 0.048 | inactive: -0.016 | inactive: -0.103 | inactive: 0.022 | inactive: -0.047 | inactive: 0.016 | inactive: 0.143 | inactive: 0.046 | inactive: 0.03 | inactive: -0.017 | inactive: 0.141 |
| MCM5 (UniProt P33992) | inactive: 0.011 | inactive: 0.033 | inactive: -0.019 | inactive: -0.022 | inactive: -0.045 | inactive: -0.012 | inactive: 0.028 | inactive: 0 | inactive: -0.007 | inactive: 0.009 | inactive: 0 | inactive: -0.021 | inactive: -0.05 | inactive: 0.054 | inactive: 0.021 | inactive: 0.027 | inactive: 0.055 | inactive: -0.018 | inactive: 0.02 | inactive: 0 |
| MEPCE (UniProt Q7L2J0) | inactive: -0.12 | inactive: 0.065 | inactive: 0 | active: -0.337 | inactive: -0.116 | inactive: -0.123 | inactive: 0.023 | inactive: 0.061 | inactive: 0.029 | inactive: -0.018 | inactive: -0.085 | inactive: -0.152 | inactive: -0.127 | inactive: -0.004 | inactive: 0.063 | inactive: 0.107 | inactive: 0.005 | inactive: 0.02 | inactive: -0.019 | inactive: 0.026 |
| MDH1 isoform 3 (UniProt P40925) | inactive: 0.007 | inactive: -0.025 | inactive: -0.019 | inactive: 0.013 | inactive: 0.01 | inactive: 0.002 | inactive: 0.009 | inactive: 0.009 | inactive: -0.057 | inactive: 0.033 | inactive: 0.038 | inactive: 0.011 | inactive: -0.004 | inactive: 0.015 | inactive: 0.003 | inactive: 0.009 | inactive: 0.008 | inactive: -0.055 | inactive: -0.004 | inactive: 0.032 |
| METAP1 (UniProt P53582) | inactive: 0.019 | inactive: -0.038 | inactive: -0.046 | inactive: -0.005 | inactive: -0.04 | inactive: -0.018 | inactive: -0.012 | inactive: -0.039 | inactive: 0.05 | inactive: -0.003 | inactive: 0.002 | inactive: -0.039 | inactive: 0.041 | inactive: 0.027 | inactive: -0.033 | inactive: -0.034 | inactive: -0.021 | inactive: 0.02 | inactive: 0.016 | inactive: -0.012 |
| MED1 (UniProt Q15648) | inactive: 0.016 | inactive: -0.018 | inactive: 0.057 | inactive: 0 | inactive: 0.037 | active: -0.217 | inactive: -0.064 | inactive: -0.089 | inactive: 0.069 | inactive: 0.004 | inactive: 0.027 | inactive: -0.064 | inactive: 0.002 | inactive: -0.113 | inactive: -0.018 | inactive: 0.05 | inactive: -0.001 | inactive: -0.002 | inactive: 0.063 | inactive: -0.124 |
| MAVS (UniProt Q7Z434) | inactive: -0.038 | inactive: 0.016 | inactive: 0 | inactive: 0.03 | inactive: -0.025 | inactive: -0.016 | inactive: 0.087 | inactive: 0.015 | inactive: 0.028 | inactive: 0.031 | inactive: 0.014 | inactive: 0.012 | inactive: -0.035 | inactive: 0.038 | inactive: -0.002 | inactive: -0.014 | inactive: 0.045 | inactive: -0.017 | inactive: -0.005 | inactive: -0.012 |
| ME1 (UniProt P48163) | inactive: -0.031 | inactive: -0.041 | inactive: -0.007 | inactive: 0.011 | inactive: -0.005 | inactive: -0.007 | inactive: 0.041 | inactive: -0.019 | inactive: 0.007 | inactive: 0.035 | inactive: 0.008 | inactive: 0.009 | inactive: -0.024 | inactive: 0.025 | inactive: 0.02 | inactive: -0.021 | inactive: 0 | inactive: -0.009 | inactive: -0.039 | inactive: -0.005 |
